Reference: US9458203B2, “Integrin-blocking polypeptides and uses thereof” (priority 2011, dated 2016)
Read-outs that look alike come from different tables or passages of the source. Part of at least one peptide drawing is inferred or uncertain, most often the ends. Ends that are not written are not given here.

How the values were obtained:
[1] = tested on: human cervical cancer HeLa; type: in vivo, nude mice; conditions: tail vein daily
[2] = tested on: human liver cancer SMMC-7721; conditions: tail vein daily
sarcoma HT-1080 = type: in vivo, nude mice; conditions: for tumor inhibition rate / tumor weight: daily, tail vein injection; for inhibition rate on tumor: tail vein daily
Source text: (§1) The total medication period was 14 days.

[3] = tested on: human testicular cancer 5637; type: in vivo, nude mice; conditions: for tumor inhibition rate / tumor weight: daily, tail vein injection; for inhibition rate on tumor: tail vein daily
Source text: as §1

[4] = tested on: human esophageal cancer Ec109; type: in vivo, nude mice; conditions: for tumor inhibition rate / tumor weight: daily, tail vein injection; for inhibition rate on tumor: tail vein daily
Source text: as §1

[5] = tested on: human laryngeal cancer Hep-2; assay: heterotransplanted human laryngeal cancer Hep-2 in nude mice; type: in vivo; conditions: for tumor inhibition rate / tumor weight: daily, tail vein injection; for inhibition rate on tumor: tail vein daily
Source text: as §1

human brain tumor SF763 = conditions: for tumor inhibition rate / tumor weight: daily, tail vein injection; for inhibition rate on tumor: tail vein daily
[6] = tested on: human gallbladder cancer GBC-SD; assay: heterotransplanted human gallbladder cancer GBC-SD in nude mice; conditions: for tumor inhibition rate / tumor weight: daily, tail vein injection; for inhibition rate on tumor: tail vein daily

Sequence: RGDGGGGFQPVLHLVALNSPLSGGMRGIRGADFQCFQQARAVGLAGTFRA [polypeptide II]
- tumor inhibition rate ([1]; 0.75 mg/kg/time): 64.45%
- tumor weight ([1]; 0.75 mg/kg/time): 0.50 ± 0.12 g
- tumor inhibition rate ([1]; 1.5 mg/kg/time): 68.19%
- tumor weight ([1]; 1.5 mg/kg/time): 0.45 ± 0.11 g
- tumor inhibition rate ([1]; 3 mg/kg/time): 55.82%
- tumor weight ([1]; 3 mg/kg/time): 0.62 ± 0.18 g
- tumor inhibition rate ([2]; 0.75 mg/kg/time): 71.54%
- tumor weight ([2]; 0.75 mg/kg/time): 0.36 ± 0.05 g
- tumor inhibition rate ([2]; 1.5 mg/kg/time): 75.12%
- tumor weight ([2]; 1.5 mg/kg/time): 0.31 ± 0.07 g
- tumor inhibition rate ([2]; 3 mg/kg/time): 68.75%
- tumor weight ([2]; 3 mg/kg/time): 0.39 ± 0.05 g
- tumor inhibition rate (sarcoma HT-1080; 0.75 mg/kg/time): 70.60%
- tumor weight (sarcoma HT-1080; 0.75 mg/kg/time): 0.40 ± 0.11 g
- tumor inhibition rate (sarcoma HT-1080; 1.5 mg/kg/time): 74.43%
- tumor weight (sarcoma HT-1080; 1.5 mg/kg/time): 0.35 ± 0.07 g
- tumor inhibition rate (sarcoma HT-1080; 3 mg/kg/time): 67.06%
- tumor weight (sarcoma HT-1080; 3 mg/kg/time): 0.45 ± 0.11 g
- inhibition rate on tumor (sarcoma HT-1080; high dose): 67.06%
- inhibition rate on tumor (sarcoma HT-1080; low dose): 70.60%
- inhibition rate on tumor (sarcoma HT-1080; medium dose): 74.43%
- tumor inhibition rate ([3]; 0.75 mg/kg/time): 60.96%
- tumor weight ([3]; 0.75 mg/kg/time): 0.49 ± 0.11 g
- tumor inhibition rate ([3]; 1.5 mg/kg/time): 64.32%
- tumor weight ([3]; 1.5 mg/kg/time): 0.45 ± 0.10 g
- tumor inhibition rate ([3]; 3 mg/kg/time): 52.49%
- tumor weight ([3]; 3 mg/kg/time): 0.60 ± 0.16 g
- inhibition rate on tumor ([3]; high dose): 52.49%
- inhibition rate on tumor ([3]; low dose): 60.96%
- inhibition rate on tumor ([3]; medium dose): 64.32%
- tumor inhibition rate ([4]; 0.75 mg/kg/time): 59.65%
- tumor weight ([4]; 0.75 mg/kg/time): 0.62 ± 0.13 g
- tumor inhibition rate ([4]; 1.5 mg/kg/time): 63.88%
- tumor weight ([4]; 1.5 mg/kg/time): 0.55 ± 0.12 g
- tumor inhibition rate ([4]; 3 mg/kg/time): 53.34%
- tumor weight ([4]; 3 mg/kg/time): 0.71 ± 0.15 g
- inhibition rate on tumor ([4]; high dose): 53.34%
- inhibition rate on tumor ([4]; low dose): 59.65%
- inhibition rate on tumor ([4]; medium dose): 63.88%
- tumor inhibition rate ([5]; 0.75 mg/kg/time): 64.98%
- tumor weight ([5]; 0.75 mg/kg/time): 0.39 ± 0.06 g
- tumor inhibition rate ([5]; 1.5 mg/kg/time): 70.41%
- tumor weight ([5]; 1.5 mg/kg/time): 0.33 ± 0.07 g
- tumor inhibition rate ([5]; 3 mg/kg/time): 60.76%
- tumor weight ([5]; 3 mg/kg/time): 0.44 ± 0.08 g
- inhibition rate on tumor ([5]; high dose): 60.76%
- inhibition rate on tumor ([5]; low dose): 64.98%
- inhibition rate on tumor ([5]; medium dose): 70.41%
- tumor inhibition rate (human brain tumor SF763; 0.75 mg/kg/time): 70.61%
- tumor weight (human brain tumor SF763; 0.75 mg/kg/time): 0.35 ± 0.13 g
- tumor inhibition rate (human brain tumor SF763; 1.5 mg/kg/time): 75.02%
- tumor weight (human brain tumor SF763; 1.5 mg/kg/time): 0.29 ± 0.07 g
- tumor inhibition rate (human brain tumor SF763; 3 mg/kg/time): 65.48%
- tumor weight (human brain tumor SF763; 3 mg/kg/time): 0.41 ± 0.14 g
- inhibition rate on tumor (human brain tumor SF763; high dose): 65.48%
- inhibition rate on tumor (human brain tumor SF763; low dose): 70.61%
- inhibition rate on tumor (human brain tumor SF763; medium dose): 75.02%
- tumor inhibition rate ([6]; 0.75 mg/kg/time): 62.00%
- tumor weight ([6]; 0.75 mg/kg/time): 0.46 ± 0.11 g
- tumor inhibition rate ([6]; 1.5 mg/kg/time): 69.19%
- tumor weight ([6]; 1.5 mg/kg/time): 0.37 ± 0.10 g
- tumor inhibition rate ([6]; 3 mg/kg/time): 60.48%
- tumor weight ([6]; 3 mg/kg/time): 0.47 ± 0.11 g
- inhibition rate on tumor ([6]; high dose): 60.48%
- inhibition rate on tumor ([6]; low dose): 62.00%
- inhibition rate on tumor ([6]; medium dose): 69.19%
